Laboratory results from paper doi:10.1101/180380.
No constants are given. Whether binding was seen depends on the method and setting. Binding calls can cover weak binding; strength is not graded here. For part of these data: Binding seen in cells or lysates may run through a third protein. For part of these data: Where a sequence is shown, tags or fusion partners need not be part of it.

B1: BAM2 fused to a YFP fragment for BiFC (receptor, UniProt Q9M2Z1 23-1002)
chain: KPITELHALLSLKSSFTIDEHSPLLTSWNLSTTFCSWTGVTCDVSLRHVTSLDLSGLNLSGTLSSDVAHLPLLQNLSLAANQISGPIPPQISNLYELRHLNLSNNVFNGSFPDELSSGLVNLRVLDLYNNNLTGDLPVSLTNLTQLRHLHLGGNYFSGKIPATYGTWPVLEYLAVSGNELTGKIPPEIGNLTTLRELYIGYYNAFENGLPPEIGNLSELVRFDAANCGLTGEIPPEIGKLQKLDTLFLQVNAFTGTITQELGLISSLKSMDLSNNMFTGEIPTSFSQLKNLTLLNLFRNKLYGAIPEFIGEMPELEVLQLWENNFTGSIPQKLGENGRLVILDLSSNKLTGTLPPNMCSGNRLMTLITLGNFLFGSIPDSLGKCESLTRIRMGENFLNGSIPKELFGLPKLSQVELQDNYLTGELPISGGGVSGDLGQISLSNNQLSGSLPAAIGNLSGVQKLLLDGNKFSGSIPPEIGRLQQLSKLDFSHNLFSGRIAPEISRCKLLTFVDLSRNELSGDIPNELTGMKILNYLNLSRNHLVGSIPVTIASMQSLTSVDFSYNNLSGLVPSTGQFSYFNYTSFVGNSHLCGPYLGPCGKGTHQSHVKPLSATTKLLLVLGLLFCSMVFAIVAIIKARSLRNASEAKAWRLTAFQRLDFTCDDVLDSLKEDNIIGKGGAGIVYKGTMPKGDLVAVKRLATMSHGSSHDHGFNAEIQTLGRIRHRHIVRLLGFCSNHETNLLVYEYMPNGSLGEVLHGKKGGHLHWNTRYKIALEAAKGLCYLHHDCSPLIVHRDVKSNNILLDSNFEAHVADFGLAKFLQDSGTSECMSAIAGSYGYIAPEYAYTLKVDEKSDVYSFGVVLLELITGKKPVGEFGDGVDIVQWVRSMTDSNKDCVLKVIDLRLSSVPVHEVTHVFYVALLCVEEQAVERPTMREVVQILTEIPKIPLSKQQAAESDVTEKAPAINESSPDSGSPPDLLSN
B2: BAM1 from Arabidopsis fused to a YFP fragment for BiFC (receptor, UniProt O49545 20-1003)
chain: SRPISEFRALLSLKTSLTGAGDDKNSPLSSWKVSTSFCTWIGVTCDVSRRHVTSLDLSGLNLSGTLSPDVSHLRLLQNLSLAENLISGPIPPEISSLSGLRHLNLSNNVFNGSFPDEISSGLVNLRVLDVYNNNLTGDLPVSVTNLTQLRHLHLGGNYFAGKIPPSYGSWPVIEYLAVSGNELVGKIPPEIGNLTTLRELYIGYYNAFEDGLPPEIGNLSELVRFDGANCGLTGEIPPEIGKLQKLDTLFLQVNVFSGPLTWELGTLSSLKSMDLSNNMFTGEIPASFAELKNLTLLNLFRNKLHGEIPEFIGDLPELEVLQLWENNFTGSIPQKLGENGKLNLVDLSSNKLTGTLPPNMCSGNKLETLITLGNFLFGSIPDSLGKCESLTRIRMGENFLNGSIPKGLFGLPKLTQVELQDNYLSGELPVAGGVSVNLGQISLSNNQLSGPLPPAIGNFTGVQKLLLDGNKFQGPIPSEVGKLQQLSKIDFSHNLFSGRIAPEISRCKLLTFVDLSRNELSGEIPNEITAMKILNYLNLSRNHLVGSIPGSISSMQSLTSLDFSYNNLSGLVPGTGQFSYFNYTSFLGNPDLCGPYLGPCKDGVAKGGHQSHSKGPLSASMKLLLVLGLLVCSIAFAVVAIIKARSLKKASESRAWRLTAFQRLDFTCDDVLDSLKEDNIIGKGGAGIVYKGVMPNGDLVAVKRLAAMSRGSSHDHGFNAEIQTLGRIRHRHIVRLLGFCSNHETNLLVYEYMPNGSLGEVLHGKKGGHLHWDTRYKIALEAAKGLCYLHHDCSPLIVHRDVKSNNILLDSNFEAHVADFGLAKFLQDSGTSECMSAIAGSYGYIAPEYAYTLKVDEKSDVYSFGVVLLELVTGRKPVGEFGDGVDIVQWVRKMTDSNKDSVLKVLDPRLSSIPIHEVTHVFYVAMLCVEEQAVERPTMREVVQILTEIPKLPPSKDQPMTESAPESELSPKSGVQSPPDLLNL
B3: kinase domain of BAM1 expressed in Escherichia coli (domain or fragment, UniProt O49545 694-971)
chain: LKEDNIIGKGGAGIVYKGVMPNGDLVAVKRLAAMSRGSSHDHGFNAEIQTLGRIRHRHIVRLLGFCSNHETNLLVYEYMPNGSLGEVLHGKKGGHLHWDTRYKIALEAAKGLCYLHHDCSPLIVHRDVKSNNILLDSNFEAHVADFGLAKFLQDSGTSECMSAIAGSYGYIAPEYAYTLKVDEKSDVYSFGVVLLELVTGRKPVGEFGDGVDIVQWVRKMTDSNKDSVLKVLDPRLSSIPIHEVTHVFYVAMLCVEEQAVERPTMREVVQILTEIPKL

Legend:
[1] = biological target: C4 fused to a YFP fragment for BiFC (Tomato yellow leaf curl virus); test: split reporter
[2] = biological target: C4 protein expressed in Escherichia coli (Tomato yellow leaf curl virus); test: SEC

Row | Binder | binding [1] | binding [2]
1 | B1 | binds | 
2 | B2 | binds | 
3 | B3 |  | binds
